Measured values as given in PMC11670450.
No constants are given. Whether binding was seen depends on the method and setting. In cells and extracts the contact can be indirect. These calls come from enrichment with a bait or labelling near it, and not all partners need be listed.

Amino acid sequences for entries named in this document (tags omitted). Residues count along the entry.
UniProt P05106, residues 27-788: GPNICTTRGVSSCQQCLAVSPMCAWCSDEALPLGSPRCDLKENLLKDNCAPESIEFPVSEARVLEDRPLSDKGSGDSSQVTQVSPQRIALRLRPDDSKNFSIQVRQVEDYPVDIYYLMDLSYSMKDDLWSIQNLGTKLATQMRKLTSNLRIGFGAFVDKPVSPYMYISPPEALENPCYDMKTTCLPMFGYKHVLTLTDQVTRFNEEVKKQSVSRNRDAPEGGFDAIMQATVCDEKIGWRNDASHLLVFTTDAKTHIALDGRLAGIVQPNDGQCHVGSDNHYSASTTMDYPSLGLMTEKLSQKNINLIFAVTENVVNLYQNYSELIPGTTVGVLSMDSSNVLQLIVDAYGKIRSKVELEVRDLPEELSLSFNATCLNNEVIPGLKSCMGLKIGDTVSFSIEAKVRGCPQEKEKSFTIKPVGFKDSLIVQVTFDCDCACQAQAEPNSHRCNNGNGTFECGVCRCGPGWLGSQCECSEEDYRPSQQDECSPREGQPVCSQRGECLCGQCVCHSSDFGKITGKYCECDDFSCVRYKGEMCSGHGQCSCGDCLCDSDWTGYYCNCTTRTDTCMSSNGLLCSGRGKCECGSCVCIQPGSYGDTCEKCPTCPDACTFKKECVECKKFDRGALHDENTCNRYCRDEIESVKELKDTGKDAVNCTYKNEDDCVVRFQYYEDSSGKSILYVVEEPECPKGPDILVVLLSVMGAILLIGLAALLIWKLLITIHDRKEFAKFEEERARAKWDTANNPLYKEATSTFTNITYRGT

Biological target: Integrin beta-3 (human (endogenous in HTR-8/SVneo)) (UniProt P05106)
Assay: affinity purification with mass spectrometry; HTR-8/SVneo cell lysate incubated with anti-ITGB3 antibody or nonimmune IgG at 4 °C overnight, protein A/G beads, washes in TBS with 0.05% Tween-20, glycine pH 2.7 elution; SDS-PAGE, silver stain, in-gel digest of the enriched band, LC-MS/MS; proteins specific to the ITGB3 group, abundance threshold > 20

B1: Junctional protein associated with coronary artery disease (protein, UniProt Q9P266 1-1359)
chain: MYSVEDLLISHGYKLSRDPPASREDNPKGRQAARTGTRAGQGLQNGHEDGPAALAHRKTSAGKGHVSDSESRRSTPRGHGEPQSTSASRTSEAGFCNQPPSAWSSHPPTGNDQAYRRRGRQEARSQKPREHENLEARGMAQAHSLPVHVREGPWEVGGRSEHVMKKPVWEEELRMSGPAKWQNVSLESWNQPRKLGRQMSDGDGERLFQDLYPFIQGEHVLNSQNKGKSRSLPRVLSPESLSCTEIPIPLNERHSPKMPPYPPTCAPNLDSTRNSEKSGCSAPFPRPKFGRPLKPPSYSSHQQSRGGADSSDSQDSQQMDAYVPRHELCLSDPGLEPPVYVPPPSYRSPPQNIPNPYLEDTVPINVCGGHSQQQSPTEKAGASGQPPSGPPGTGNEYGVSPRLPQGLPAHPRPVTAYDGFVQYIPFDDPRLRHFKLAQPQGFCEDIKLDDKSYNSSPVTAQEPAHGGMQPDGAIWNPQSLIPPSGDERGLVLADSSPRWLWGQPPGDGENSGLPNQRDRCVARGQWPDVRGSQHGHTGRQVSSPYSQGESTCETQTKLKKFQTGTRTKKSSKKKMNETIFCLVSIPVKSESHLPDRDMDNNDLKPSADQKNGSDKSPALQEQSLLSMSSTDLELQALTGSMGGRTEFQKQDLGEPEEDRQTNDLSFIHLTKHRELKHSGSWPGHRYRDQQTQTSFSEEPQSSQLLPGAKLGGPSRAALSPKCSDPAASEAQTHTAFPTGDHKQRPSARNLKGHRSLSPSSNSAFSRTSLSVDQAPTPKAGRSQPCVDVHGLGAHPGPKREVVKGEPTGPCNSKQLFGQFLLKPVSRRPWDLISQLESFNKELQEEEESSSSSSSSSSSSEESEAEPQQENRAHCRQEDVGFRGNSPEMRVEPQPRMWVPESPVCRSGRGESKSESWSEELQPGHPRAWPPSPGRFRVEEGGGAPFCSADGSTSAEKRHLEVSNGMDELAGSPFPVTRMSSRSSDAKPLPASYPAEPREPQESPKITSAFSSVKPSEAVPRKFDSGGERGAGLPLSLSNKNRGLSAPDLRSVGLTPGQEQGASELEGSLGEASTIEIPPGESLQARAARILGIEVAVESLLPGIRRAGQNQPAEPDASACTPESPQEELLSRPAPADVPRVSTDAFYGRRKCGWTKSPLFVGDRDSARRAPQAFEHSDVDGVVTSTDPVPEPEPSPLESKFFEQKDVETKPPFRSTLFHFVERTPSVAGSEKRLRSPSKVIESLQEKLASPPRRADPDRLMRMKEVSSVSRMRVLSFRNADSQEDAEELKATTRGQAGLPGGLVSPGSGDRAQRLGHSLSVSKDSISREEKEHPAAQKEKSMDQDFWCPDSYDPSRVERV
binding: binds

B2: Exonuclease V (protein, UniProt Q9H790 1-373)
chain: MAETREEETVSAEASGFSDLSDSEFLEFLDLEDAQESKALVNMPGPSSESLGKDDKPISLQNWKRGLDILSPMERFHLKYLYVTDLATQNWCELQTAYGKELPGFLAPEKAAVLDTGASIHLARELELHDLVTVPVTTKEDAWAIKFLNILLLIPTLQSEGHIREFPVFGEGEGVLLVGVIDELHYTAKGELELAELKTRRRPMLPLEAQKKKDCFQVSLYKYIFDAMVQGKVTPASLIHHTKLCLEKPLGPSVLRHAQQGGFSVKSLGDLMELVFLSLTLSDLPVIDILKIEYIHQETATVLGTEIVAFKEKEVRAKVQHYMAYWMGHREPQGVDVEEAWKCRTCTYADICEWRKGSGVLSSTLAPQVKKAK
binding: binds

B3: Corneodesmosin (protein, UniProt Q15517 33-529)
chain: KSIGTFSDPCKDPTRITSPNDPCLTGKGDSSGFSSYSGSSSSGSSISSARSSGGGSSGSSSGSSIAQGGSAGSFKPGTGYSQVSYSSGSGSSLQGASGSSQLGSSSSHSGNSGSHSGSSSSHSSSSSSFQFSSSSFQVGNGSALPTNDNSYRGILNPSQPGQSSSSSQTFGVSSSGQSVSSNQRPCSSDIPDSPCSGGPIVSHSGPYIPSSHSVSGGQRPVVVVVDQHGSGAPGVVQGPPCSNGGLPGKPCPPITSVDKSYGGYEVVGGSSDSYLVPGMTYSKGKIYPVGYFTKENPVKGSPGVPSFAAGPPISEGKYFSSNPIIPSQSAASSAIAFQPVGTGGVQLCGGGSTGSKGPCSPSSSRVPSSSSISSSSGLPYHPCGSASQSPCSPPGTGSFSSSSSSQSSGKIILQPCGSKSSSSGHPCMSVSSLTLTGGPDGSPHPDPSAGAKPCGSSSAGKIPCRSIRDILAQVKPLGPQLADPEVFLPQGELLNSP
binding: binds

B4: Arginase-1 (protein, UniProt P05089 1-322)
chain: MSAKSRTIGIIGAPFSKGQPRGGVEEGPTVLRKAGLLEKLKEQECDVKDYGDLPFADIPNDSPFQIVKNPRSVGKASEQLAGKVAEVKKNGRISLVLGGDHSLAIGSISGHARVHPDLGVIWVDAHTDINTPLTTTSGNLHGQPVSFLLKELKGKIPDVPGFSWVTPCISAKDIVYIGLRDVDPGEHYILKTLGIKYFSMTEVDRLGIGKVMEETLSYLLGRKKRPIHLSFDVDGLDPSFTPATGTPVVGGLTYREGLYITEEIYKTGLLSGLDIMEVNPSLGKTPEEVTRTVNTAVAITLACFGLAREGNHKPIDYLNPPK
binding: binds

B5: Keratin, type II cytoskeletal 1b (protein, UniProt Q7Z794 1-578)
chain: MSHQFSSQSAFSSMSRRVYSTSSSAGSGGGSPAVGSVCYARGRCGGGGYGIHGRGFGSRSLYNLGGSRSISINLMGRSTSGFCQGGGVGGFGGGRGFGVGSTGAGGFGGGGFGGAGFGTSNFGLGGFGPYCPPGGIQEVTINQSLLEPLHLEVDPEIQRIKTQEREQIMVLNNKFASFIDKVRFLEQQNQVLQTKWELLQQVNTSTGTNNLEPLLENYIGDLRRQVDLLSAEQMRQNAEVRSMQDVVEDYKSKYEDEINKRTGSENDFVVLKKDVDAAYVSKVDLESRVDTLTGEVNFLKYLFLTELSQVQTHISDTNVILSMDNNRSLDLDSIIDAVRTQYELIAQRSKDEAEALYQTKYQELQITAGRHGDDLKNSKMEIAELNRTVQRLQAEISNVKKQIEQMQSLISDAEERGEQALQDAWQKLQDLEEALQQSKEELARLLRDYQAMLGVKLSLDVEIATYRQLLEGEESRMSGELQSHVSISVQNSQVSVNGGAGGGGSYGSGGYGGGSGGGYGGGRSYRGGGARGRSGGGYGSGCGGGGGSYGGSGRSGRGSSRVQIIQTSTNTSHRRILE
binding: binds

B6: Uncharacterized protein encoded by LINC02872 (protein, UniProt A2RU37 1-121)
chain: MWSRRGLGVSRAPLHLLLGVWGPSGRTGGQRKGASLARPGRGGLASCSVGANGKRDVLFLRKTLTNTVEDIQIDNFRRKSDLGVGSPDWKNLLIDVTREDHENSQNNSKRRCKVNCETDQR
binding: binds

B7: Catalase (protein, UniProt P04040 1-527)
chain: MADSRDPASDQMQHWKEQRAAQKADVLTTGAGNPVGDKLNVITVGPRGPLLVQDVVFTDEMAHFDRERIPERVVHAKGAGAFGYFEVTHDITKYSKAKVFEHIGKKTPIAVRFSTVAGESGSADTVRDPRGFAVKFYTEDGNWDLVGNNTPIFFIRDPILFPSFIHSQKRNPQTHLKDPDMVWDFWSLRPESLHQVSFLFSDRGIPDGHRHMNGYGSHTFKLVNANGEAVYCKFHYKTDQGIKNLSVEDAARLSQEDPDYGIRDLFNAIATGKYPSWTFYIQVMTFNQAETFPFNPFDLTKVWPHKDYPLIPVGKLVLNRNPVNYFAEVEQIAFDPSNMPPGIEASPDKMLQGRLFAYPDTHRHRLGPNYLHIPVNCPYRARVANYQRDGPMCMQDNQGGAPNYYPNSFGAPEQQPSALEHSIQYSGEVRRFNTANDDNVTQVRAFYVNVLNEEQRKRLCENIAGHLKDAQIFIQKKAVKNFTEVHPDYGSHIQALLDKYNAEKPKNAIHTFVQSGSHLAAREKANL
binding: binds

B8: Protein FAM171B (protein, UniProt Q6P995 33-826)
chain: ELSRSDLSLIQQQQQQQQQQQQQQKQLEEAEEERTEVPGATSTLTVPVSVFMLKVQVNDIISRQYLSQAVVEVFVNYTKTNSTVTKSNGAVLIKVPYKLGLSLTIIAYKDGYVLTPLPWKTRRMPIYSSVTLSLFPQSQANIWLFEDTVLITGKLADAKSQPSVQFSKALIKLPDNHHISNVTGYLTVLQQFLKVDNFLHTTGITLNKPGFENIELTPLAAICVKIYSGGKELKVNGSIQVSLPLLRLNDISAGDRIPAWTFDMNTGAWVNHGRGMVKEHNNHLIWTYDAPHLGYWIAAPLPGTRGSGINEDSKDITAYHTVFLTAILGGTIVIVIGFFAVLLCYCRDKCGTPQKRERNITKLEVLKRDQTTSTTHINHISTVKVALKAEDKSQLFNAKNSSYSPQKKEPSKAETEERVSMVKTRDDFKIYNEDVSFLSVNQNNYSRNPTQSLEPNVGSKQPKHINNNLSSSLGDAQDEKRYLTGNEEAYGRSHIPEQLMHIYSQPIAILQTSDLFSTPEQLHTAKSATLPRKGQLVYGQLMEPVNRENFTQTLPKMPIHSHAQPPDAREEDIILEGQQSLPSQASDWSRYSSSLLESVSVPGTLNEAVVMTPFSSELQGISEQTLLELSKGKPSPHPRAWFVSLDGKPVAQVRHSFIDLKKGKRTQSNDTSLDSGVDMNELHSSRKLEREKTFIKSMHQPKILYLEDLDLSSSESGTTVCSPEDPALRHILDGGSGVIMEHPGEESPGRKSTVEDFEANTSPTKRRGRPPLAKRDSKTNIWKKREERPLIPIN
binding: binds

B9: Conserved oligomeric Golgi complex subunit 7 (protein, UniProt P83436 1-770)
chain: MDFSKFLADDFDVKEWINAAFRAGSKEAASGKADGHAATLVMKLQLFIQEVNHAVEETSHQALQNMPKVLRDVEALKQEASFLKEQMILVKEDIKKFEQDTSQSMQVLVEIDQVKSRMQLAAESLQEADKWSTLSADIEETFKTQDIAVISAKLTGMQNSLMMLVDTPDYSEKCVHLEALKNRLEALASPQIVAAFTSQAVDQSKVFVKVFTEIDRMPQLLAYYYKCHKVQLLAAWQELCQSDLSLDRQLTGLYDALLGAWHTQIQWATQVFQKPHEVVMVLLIQTLGALMPSLPSCLSNGVERAGPEQELTRLLEFYDATAHFAKGLEMALLPHLHEHNLVKVTELVDAVYDPYKPYQLKYGDMEESNLLIQMSAVPLEHGEVIDCVQELSHSVNKLFGLASAAVDRCVRFTNGLGTCGLLSALKSLFAKYVSDFTSTLQSIRKKCKLDHIPPNSLFQEDWTAFQNSIRIIATCGELLRHCGDFEQQLANRILSTAGKYLSDSCSPRSLAGFQESILTDKKNSAKNPWQEYNYLQKDNPAEYASLMEILYTLKEKGSSNHNLLAAPRAALTRLNQQAHQLAFDSVFLRIKQQLLLISKMDSWNTAGIGETLTDELPAFSLTPLEYISNIGQYIMSLPLNLEPFVTQEDSALELALHAGKLPFPPEQGDELPELDNMADNWLGSIARATMQTYCDAILQIPELSPHSAKQLATDIDYLINVMDALGLQPSRTLQHIVTLLKTRPEDYRQVSKGLPRRLATTVATMRSVNY
binding: binds

B10: Peroxiredoxin-1 (protein, UniProt Q06830 1-199)
chain: MSSGNAKIGHPAPNFKATAVMPDGQFKDISLSDYKGKYVVFFFYPLDFTFVCPTEIIAFSDRAEEFKKLNCQVIGASVDSHFCHLAWVNTPKKQGGLGPMNIPLVSDPKRTIAQDYGVLKADEGISFRGLFIIDDKGILRQITVNDLPVGRSVDETLRLVQAFQFTDKHGEVCPAGWKPGSDTIKPDVQKSKEYFSKQK
binding: binds
